Measurements as given in ChEMBL document CHEMBL4350955, “Novel Chemical Series of 5-Lipoxygenase-Activating Protein Inhibitors for Treatment of Coronary Artery Disease” (J Med Chem, 2019).
Converted amounts (≈) assume the structure as drawn.

Amino acid sequences for entries named in this document (tags omitted). A change or cut given only in a name is not applied to a line headed by its entry.
UniProt Q12809: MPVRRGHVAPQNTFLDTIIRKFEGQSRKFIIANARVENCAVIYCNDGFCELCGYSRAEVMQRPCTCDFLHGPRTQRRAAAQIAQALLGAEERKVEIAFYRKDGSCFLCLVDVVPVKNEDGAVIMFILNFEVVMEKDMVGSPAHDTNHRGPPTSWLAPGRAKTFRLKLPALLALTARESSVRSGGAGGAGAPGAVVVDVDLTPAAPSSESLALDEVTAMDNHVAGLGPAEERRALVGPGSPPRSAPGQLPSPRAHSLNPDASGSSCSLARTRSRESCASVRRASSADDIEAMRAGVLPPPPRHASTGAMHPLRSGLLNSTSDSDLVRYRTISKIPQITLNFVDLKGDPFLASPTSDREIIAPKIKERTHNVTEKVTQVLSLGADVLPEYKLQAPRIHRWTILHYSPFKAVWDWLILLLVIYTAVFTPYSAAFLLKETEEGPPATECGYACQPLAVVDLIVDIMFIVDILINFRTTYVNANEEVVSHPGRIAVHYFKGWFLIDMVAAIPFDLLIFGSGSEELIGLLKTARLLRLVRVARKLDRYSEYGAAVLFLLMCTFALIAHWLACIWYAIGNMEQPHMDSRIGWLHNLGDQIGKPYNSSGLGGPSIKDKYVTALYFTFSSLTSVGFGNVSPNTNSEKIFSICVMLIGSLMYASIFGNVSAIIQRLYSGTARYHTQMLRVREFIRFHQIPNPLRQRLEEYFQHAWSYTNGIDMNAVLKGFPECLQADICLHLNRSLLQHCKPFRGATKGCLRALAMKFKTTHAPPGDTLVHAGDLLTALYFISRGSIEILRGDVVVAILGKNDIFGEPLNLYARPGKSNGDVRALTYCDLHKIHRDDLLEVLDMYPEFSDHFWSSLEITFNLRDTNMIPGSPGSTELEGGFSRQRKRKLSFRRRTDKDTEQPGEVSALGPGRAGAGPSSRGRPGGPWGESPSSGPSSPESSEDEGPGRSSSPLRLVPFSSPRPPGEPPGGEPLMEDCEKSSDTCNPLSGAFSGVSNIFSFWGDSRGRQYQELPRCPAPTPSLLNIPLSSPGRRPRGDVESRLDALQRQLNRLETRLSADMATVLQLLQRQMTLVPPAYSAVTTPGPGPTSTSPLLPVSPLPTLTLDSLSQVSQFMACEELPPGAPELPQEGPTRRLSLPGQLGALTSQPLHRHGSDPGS

Tests used:
[1] = molecular target: T1, Cytochrome P450 3A4 (Homo sapiens, UniProt P08684); settings: microsomes
[2] = Distribution coefficient between octanol and sodium phosphate buffer, logD of the compound in pH 7.4 buffer by LC-MS/MS-based shake flask method; settings: octanol/water
[3] = molecular target: T1, Cytochrome P450 3A4; settings: recombinant enzyme, 3 h, 1 µM
[4] = molecular target: Voltage-gated inwardly rectifying potassium channel KCNH2 (Homo sapiens, UniProt Q12809); test: Inhibition of human ERG by high-throughput electrophysiology assay
[5] = system: Cytochrome P450; settings: human, hepatocytes, 2 h
[6] = physchem; settings: buffer, pH 7.4
[7] = molecular target: T1, Cytochrome P450 3A4; test: Inhibition of recombinant human CYP3A4 expressed in Escherichia coli assessed as maximum reduction in metabolite formation using coumarin based substrate by fluorescence assay
[8] = system: Cytochrome P450; settings: human, hepatocytes, 2 h; remark: listed apart in the source

Compound | Drug metabolism [1] [%] | logD [2] | Drug metabolism [3] [%] | IC50 [4] [µM] | Drug metabolism [5] [%] | solubility at 24 h [6] [µM] | IC50 [7] [µM] | Drug metabolism [8] [%]
Cn1cc(NC(=O)[C@@H]2CCCC[C@H]2C(=O)c2ccc(-c3cc[nH]n3)cc2)c(C(F)(F)F)n1 | 94 | 3.4 | 57 | > 31.6 | 2 | 73 (≈ 32.5 µg/mL) | 20 | 26
Cc1noc(C)c1NC(=O)[C@@H]1CCCC[C@H]1C(=O)c1ccc(-c2cc[nH]n2)cc1 (racemic) |  | 3.1 |  | > 12.6 |  | 92 (≈ 36.1 µg/mL) | 3.98 | 
